Measured values taken from the supplement of paper PMC10849652.
The other results are listed elsewhere or left out.

The chains behind the UniProt entries cited, without tags or fusion partners. Where a name states a change or a piece, a line headed by the entry shows the natural chain unless it says otherwise.
UniProt P22234: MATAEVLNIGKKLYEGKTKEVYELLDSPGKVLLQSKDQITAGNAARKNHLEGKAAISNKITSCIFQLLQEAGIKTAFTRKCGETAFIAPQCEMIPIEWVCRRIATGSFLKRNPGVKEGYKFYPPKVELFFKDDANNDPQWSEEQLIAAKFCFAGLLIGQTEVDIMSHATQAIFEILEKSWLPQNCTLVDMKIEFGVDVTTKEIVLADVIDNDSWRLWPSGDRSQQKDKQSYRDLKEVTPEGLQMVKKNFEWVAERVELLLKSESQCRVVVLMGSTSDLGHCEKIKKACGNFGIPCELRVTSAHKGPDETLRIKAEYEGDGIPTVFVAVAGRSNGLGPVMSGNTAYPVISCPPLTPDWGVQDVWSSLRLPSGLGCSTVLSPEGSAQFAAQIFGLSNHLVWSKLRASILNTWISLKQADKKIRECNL
UniProt Q96RD7, whole entry, looked up: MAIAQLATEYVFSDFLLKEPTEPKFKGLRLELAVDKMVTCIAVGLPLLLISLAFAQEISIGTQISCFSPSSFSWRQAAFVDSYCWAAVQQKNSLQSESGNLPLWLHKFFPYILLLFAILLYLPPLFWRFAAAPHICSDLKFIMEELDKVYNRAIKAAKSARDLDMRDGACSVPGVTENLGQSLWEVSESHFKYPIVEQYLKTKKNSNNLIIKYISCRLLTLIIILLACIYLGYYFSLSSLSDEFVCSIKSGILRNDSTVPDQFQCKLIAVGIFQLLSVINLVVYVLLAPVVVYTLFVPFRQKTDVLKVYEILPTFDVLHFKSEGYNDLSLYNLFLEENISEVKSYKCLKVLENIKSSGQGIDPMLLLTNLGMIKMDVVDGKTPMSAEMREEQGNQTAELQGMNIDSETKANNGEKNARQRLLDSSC
UniProt Q5VU43: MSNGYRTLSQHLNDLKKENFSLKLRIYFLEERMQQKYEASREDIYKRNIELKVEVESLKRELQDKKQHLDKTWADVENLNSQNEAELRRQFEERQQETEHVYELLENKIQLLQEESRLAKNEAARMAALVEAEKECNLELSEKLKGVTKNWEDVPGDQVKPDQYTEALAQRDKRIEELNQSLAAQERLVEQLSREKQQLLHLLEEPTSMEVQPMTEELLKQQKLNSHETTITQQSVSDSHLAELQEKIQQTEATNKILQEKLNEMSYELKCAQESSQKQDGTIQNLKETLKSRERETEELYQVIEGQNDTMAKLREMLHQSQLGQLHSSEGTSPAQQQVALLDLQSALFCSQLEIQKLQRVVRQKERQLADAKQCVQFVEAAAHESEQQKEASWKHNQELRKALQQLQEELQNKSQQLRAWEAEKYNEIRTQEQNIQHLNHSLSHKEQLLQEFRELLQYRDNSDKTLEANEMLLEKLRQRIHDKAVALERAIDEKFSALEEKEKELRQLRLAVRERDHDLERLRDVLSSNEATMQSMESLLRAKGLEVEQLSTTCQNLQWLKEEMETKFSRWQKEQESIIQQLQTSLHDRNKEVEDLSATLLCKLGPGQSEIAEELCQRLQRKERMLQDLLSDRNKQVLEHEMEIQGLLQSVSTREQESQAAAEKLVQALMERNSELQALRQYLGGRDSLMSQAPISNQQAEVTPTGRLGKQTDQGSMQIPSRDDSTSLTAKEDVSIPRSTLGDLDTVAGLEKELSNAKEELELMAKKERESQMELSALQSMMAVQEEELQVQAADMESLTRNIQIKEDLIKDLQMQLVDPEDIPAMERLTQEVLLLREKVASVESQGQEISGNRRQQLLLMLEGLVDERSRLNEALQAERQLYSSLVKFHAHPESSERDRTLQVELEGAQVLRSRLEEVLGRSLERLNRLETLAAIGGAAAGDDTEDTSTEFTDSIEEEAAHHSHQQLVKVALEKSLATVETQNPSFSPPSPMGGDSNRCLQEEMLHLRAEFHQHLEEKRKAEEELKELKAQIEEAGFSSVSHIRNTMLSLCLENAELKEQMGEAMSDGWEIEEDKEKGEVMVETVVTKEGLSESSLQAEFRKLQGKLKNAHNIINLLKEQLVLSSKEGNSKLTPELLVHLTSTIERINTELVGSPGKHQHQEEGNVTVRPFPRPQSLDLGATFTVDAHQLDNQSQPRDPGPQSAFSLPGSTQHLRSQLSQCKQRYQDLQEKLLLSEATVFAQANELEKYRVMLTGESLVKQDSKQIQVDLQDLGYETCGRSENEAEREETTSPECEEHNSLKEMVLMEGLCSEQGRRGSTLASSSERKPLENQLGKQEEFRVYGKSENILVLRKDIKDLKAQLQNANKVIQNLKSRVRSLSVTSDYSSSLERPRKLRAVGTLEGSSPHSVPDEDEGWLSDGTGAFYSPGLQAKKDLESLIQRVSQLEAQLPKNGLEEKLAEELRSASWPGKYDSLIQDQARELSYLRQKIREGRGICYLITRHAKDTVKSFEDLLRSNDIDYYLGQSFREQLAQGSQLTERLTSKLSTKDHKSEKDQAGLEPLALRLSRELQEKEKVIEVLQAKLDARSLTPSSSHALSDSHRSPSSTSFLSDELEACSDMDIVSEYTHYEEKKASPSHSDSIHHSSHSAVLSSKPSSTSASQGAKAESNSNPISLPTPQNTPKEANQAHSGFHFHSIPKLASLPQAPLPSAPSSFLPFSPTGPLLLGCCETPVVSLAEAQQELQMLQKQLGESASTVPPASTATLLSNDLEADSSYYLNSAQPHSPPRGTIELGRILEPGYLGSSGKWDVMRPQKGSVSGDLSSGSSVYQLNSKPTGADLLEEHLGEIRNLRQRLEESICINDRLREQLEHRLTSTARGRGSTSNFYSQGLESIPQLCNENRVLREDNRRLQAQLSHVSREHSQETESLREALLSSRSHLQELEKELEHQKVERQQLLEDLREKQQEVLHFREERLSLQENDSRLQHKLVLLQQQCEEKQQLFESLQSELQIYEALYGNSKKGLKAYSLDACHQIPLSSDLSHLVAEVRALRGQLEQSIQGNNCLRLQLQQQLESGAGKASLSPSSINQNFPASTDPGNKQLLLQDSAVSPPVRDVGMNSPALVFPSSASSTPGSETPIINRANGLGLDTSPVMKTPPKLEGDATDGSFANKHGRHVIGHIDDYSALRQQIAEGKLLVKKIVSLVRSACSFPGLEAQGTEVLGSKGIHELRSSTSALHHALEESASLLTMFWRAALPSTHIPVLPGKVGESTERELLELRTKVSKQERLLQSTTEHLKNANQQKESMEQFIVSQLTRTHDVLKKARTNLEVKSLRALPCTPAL
UniProt Q9BRP1: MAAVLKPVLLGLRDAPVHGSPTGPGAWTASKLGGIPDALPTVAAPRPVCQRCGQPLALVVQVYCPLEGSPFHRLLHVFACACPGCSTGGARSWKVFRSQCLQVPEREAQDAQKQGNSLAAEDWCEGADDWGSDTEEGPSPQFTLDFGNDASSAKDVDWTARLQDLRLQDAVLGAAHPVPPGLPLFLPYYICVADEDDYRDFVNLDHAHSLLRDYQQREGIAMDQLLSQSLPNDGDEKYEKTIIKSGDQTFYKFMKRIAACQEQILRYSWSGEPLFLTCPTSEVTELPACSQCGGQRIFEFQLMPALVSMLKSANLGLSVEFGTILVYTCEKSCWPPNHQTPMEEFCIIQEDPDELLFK
UniProt O96013: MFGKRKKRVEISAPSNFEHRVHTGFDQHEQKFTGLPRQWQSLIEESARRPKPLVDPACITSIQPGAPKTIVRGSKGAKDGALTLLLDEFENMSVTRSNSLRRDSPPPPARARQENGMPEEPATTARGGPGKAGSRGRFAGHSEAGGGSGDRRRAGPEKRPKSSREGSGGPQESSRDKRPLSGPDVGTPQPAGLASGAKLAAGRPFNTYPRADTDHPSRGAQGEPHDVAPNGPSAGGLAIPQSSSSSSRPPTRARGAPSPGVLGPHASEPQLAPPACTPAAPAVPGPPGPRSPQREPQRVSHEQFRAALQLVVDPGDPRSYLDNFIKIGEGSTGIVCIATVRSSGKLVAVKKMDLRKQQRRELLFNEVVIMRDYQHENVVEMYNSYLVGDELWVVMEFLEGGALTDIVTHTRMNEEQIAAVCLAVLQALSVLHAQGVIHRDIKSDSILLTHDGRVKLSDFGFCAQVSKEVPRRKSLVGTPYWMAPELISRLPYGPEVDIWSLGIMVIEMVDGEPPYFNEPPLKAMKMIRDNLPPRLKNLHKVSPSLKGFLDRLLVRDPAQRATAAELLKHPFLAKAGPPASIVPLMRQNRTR
UniProt P50479: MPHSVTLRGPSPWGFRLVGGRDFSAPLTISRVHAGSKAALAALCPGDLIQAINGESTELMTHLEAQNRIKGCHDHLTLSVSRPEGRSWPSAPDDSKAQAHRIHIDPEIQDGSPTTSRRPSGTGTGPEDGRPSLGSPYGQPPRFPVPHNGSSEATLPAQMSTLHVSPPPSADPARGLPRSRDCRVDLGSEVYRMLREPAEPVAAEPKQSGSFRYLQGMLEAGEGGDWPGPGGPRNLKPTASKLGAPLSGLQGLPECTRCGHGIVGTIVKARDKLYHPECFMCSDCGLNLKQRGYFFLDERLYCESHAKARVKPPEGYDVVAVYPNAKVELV
UniProt P0DJ07: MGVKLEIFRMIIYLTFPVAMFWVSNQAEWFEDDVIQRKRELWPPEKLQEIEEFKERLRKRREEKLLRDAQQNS
UniProt Q8TE04: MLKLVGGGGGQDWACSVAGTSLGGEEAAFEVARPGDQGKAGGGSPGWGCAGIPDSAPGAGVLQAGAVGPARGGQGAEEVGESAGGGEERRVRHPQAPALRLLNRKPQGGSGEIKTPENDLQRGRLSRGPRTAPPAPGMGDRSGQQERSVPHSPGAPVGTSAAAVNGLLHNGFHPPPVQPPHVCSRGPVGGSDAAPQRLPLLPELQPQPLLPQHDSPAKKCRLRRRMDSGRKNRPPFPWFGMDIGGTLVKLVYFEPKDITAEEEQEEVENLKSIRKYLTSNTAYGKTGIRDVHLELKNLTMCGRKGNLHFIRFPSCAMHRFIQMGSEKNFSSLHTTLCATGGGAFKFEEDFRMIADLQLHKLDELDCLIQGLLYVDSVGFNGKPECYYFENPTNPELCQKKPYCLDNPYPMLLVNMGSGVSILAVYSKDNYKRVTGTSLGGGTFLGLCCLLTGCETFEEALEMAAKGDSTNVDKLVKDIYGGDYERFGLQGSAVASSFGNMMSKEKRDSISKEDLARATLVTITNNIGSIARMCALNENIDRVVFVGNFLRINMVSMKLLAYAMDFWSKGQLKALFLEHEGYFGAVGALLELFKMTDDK
UniProt A6NDB9: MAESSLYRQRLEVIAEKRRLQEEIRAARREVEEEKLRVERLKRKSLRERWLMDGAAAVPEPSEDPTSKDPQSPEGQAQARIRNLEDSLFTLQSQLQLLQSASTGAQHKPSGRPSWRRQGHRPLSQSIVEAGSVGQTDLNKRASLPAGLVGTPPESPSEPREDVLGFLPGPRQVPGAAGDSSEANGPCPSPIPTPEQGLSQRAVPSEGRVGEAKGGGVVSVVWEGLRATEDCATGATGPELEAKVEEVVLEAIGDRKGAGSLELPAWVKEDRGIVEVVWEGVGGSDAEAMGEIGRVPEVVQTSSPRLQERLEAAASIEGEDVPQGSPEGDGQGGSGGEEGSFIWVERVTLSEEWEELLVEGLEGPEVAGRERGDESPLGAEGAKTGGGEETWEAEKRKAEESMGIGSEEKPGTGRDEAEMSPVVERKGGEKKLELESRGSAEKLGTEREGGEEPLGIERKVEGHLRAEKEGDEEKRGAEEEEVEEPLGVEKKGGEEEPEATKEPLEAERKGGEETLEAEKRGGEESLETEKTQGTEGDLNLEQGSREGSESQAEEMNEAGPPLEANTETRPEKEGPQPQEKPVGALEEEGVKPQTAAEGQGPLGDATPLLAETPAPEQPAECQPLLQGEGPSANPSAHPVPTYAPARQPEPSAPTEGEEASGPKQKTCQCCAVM
UniProt Q96AQ6: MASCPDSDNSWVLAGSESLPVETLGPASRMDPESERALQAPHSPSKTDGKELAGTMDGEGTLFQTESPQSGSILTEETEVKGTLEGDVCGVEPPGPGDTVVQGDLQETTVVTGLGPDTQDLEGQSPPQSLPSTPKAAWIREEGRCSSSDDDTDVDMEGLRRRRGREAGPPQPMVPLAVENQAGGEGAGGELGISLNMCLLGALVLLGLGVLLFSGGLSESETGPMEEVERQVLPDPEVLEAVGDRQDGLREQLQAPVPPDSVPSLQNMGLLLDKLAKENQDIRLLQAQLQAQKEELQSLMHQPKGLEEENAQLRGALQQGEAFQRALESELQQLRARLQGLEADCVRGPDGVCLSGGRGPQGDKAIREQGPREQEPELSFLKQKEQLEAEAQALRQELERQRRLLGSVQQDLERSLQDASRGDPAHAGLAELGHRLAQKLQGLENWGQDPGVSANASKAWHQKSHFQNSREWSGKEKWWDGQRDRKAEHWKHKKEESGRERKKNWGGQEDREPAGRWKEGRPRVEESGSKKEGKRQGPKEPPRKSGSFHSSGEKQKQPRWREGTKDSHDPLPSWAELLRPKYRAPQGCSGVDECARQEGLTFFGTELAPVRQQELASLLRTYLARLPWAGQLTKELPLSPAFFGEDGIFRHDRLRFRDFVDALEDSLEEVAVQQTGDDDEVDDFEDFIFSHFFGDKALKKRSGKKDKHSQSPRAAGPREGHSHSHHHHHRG

What was measured:
Assay in all cases: log2 fold change, soluble protein after heating vs DMSO (PISA); higher = thermal stabilisation; K562 cells, 10 uM, 30 min; active = over 0.2 and 3.5 SD of the protein, either way, in both replicates (recomputed)
[1] = compound: C1=CC=C(C=C1)[C@H](COC2=CC3=C(C=C2)NC(=O)N3)NC(=O)C4=CC=CN(C4=O)CC5=CC(=C(C=C5)F)F
Outline: (§1)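 Quantification of soluble protein used TMTpro 16plex LC-MS/MS, with channel sums equalised. Samples were the supernatant after 21,000xg for 90 min of pooled aliquots from K562 cells (2×10^6 cells/mL) treated with 10 μM compound for 30 min, heated for 3 min over 48°C-58°C, and extracted in PBS with 0.5% NP-40 at 4°C. Values, from duplicates, describe thermal stability against control samples on a log2 fold-change scale.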

[2] = compound: CC1=C(SC2=C1C(=N[C@H](C3=NN=C(N32)C)CC(=O)N)C4=CC=C(C=C4)Cl)C
Outline: as §1

[3] = compound: CC1=C2C(=CC=C1)N=C(N(C2=O)C3=CC=CC=C3C)CN4C=NC5=C(N=CN=C54)N
Outline: as §1

[4] = compound: Cc1sc2c(c1C)C(c1ccc(Cl)cc1)=N[C@@H](CC(=O)OC(C)(C)C)c1nnc(C)n1-2
Outline: as §1

[5] = compound: c1ccc([C@@H]2C[C@H]2NC2CCNCC2)cc1
Outline: as §1

Measured: log2 fold change

PAIP2 (UniProt Q9BPZ3)
inactive: [1] 0 | [2] 0.124 | [3] -0.011 | [4] 0.124 | [5] -0.083

PDLIM5 (UniProt Q96HC4)
inactive: [1] -0.03 | [2] 0.057 | [3] 0.027 | [4] -0.011 | [5] 0.003

PAICS (UniProt P22234)
inactive: [1] -0.022 | [2] 0.014 | [3] 0.017 | [4] 0.006 | [5] 0.005

PDHX (UniProt O00330)
inactive: [1] 0.128 | [2] -0.242 | [3] -0.054 | [4] -0.023 | [5] 0

PDCD6 (UniProt O75340)
inactive: [1] -0.024 | [2] 0.057 | [3] 0.107 | [4] -0.052 | [5] 0.003

PARN (UniProt O95453)
inactive: [1] -0.018 | [2] 0.059 | [3] 0.071 | [4] -0.028 | [5] 0.025

PAK2 (UniProt Q13177)
inactive: [1] 0.016 | [2] 0.027 | [3] 0.023 | [4] -0.008 | [5] -0.003

PANK2 (UniProt Q9BZ23)
inactive: [1] -0.016 | [2] 0.078 | [3] 0.035 | [4] 0.01 | [5] 0.063

PDLIM1 (UniProt O00151)
inactive: [1] 0.01 | [2] 0.038 | [3] -0.017 | [4] -0.031 | [5] 0.005

PCYOX1L (UniProt Q8NBM8)
inactive: [1] -0.02 | [2] -0.009 | [3] 0.034 | [4] 0.014 | [5] -0.017

PAFAH1B1 (UniProt P43034)
inactive: [1] -0.014 | [2] 0.047 | [3] 0.037 | [4] -0.011 | [5] -0.001

PES1 (UniProt O00541)
inactive: [1] 0.017 | [2] -0.269 | [3] -0.103 | [4] 0.025 | [5] -0.099

PAGE5 (UniProt Q96GU1)
inactive: [1] 0.02 | [2] -0.065 | [3] -0.073 | [4] -0.063 | [5] 0.072

PCBP1 (UniProt Q15365)
inactive: [1] -0.045 | [2] 0.047 | [3] 0.048 | [4] -0.03 | [5] 0

PEX12 (UniProt O00623)
inactive: [1] -0.068 | [2] 0.052 | [3] 0.086 | [4] -0.022 | [5] -0.002

PECAM1 (UniProt P16284)
inactive: [1] 0.063 | [2] 0.138 | [3] 0.014 | [4] -0.06 | [5] 0.047

PELO (UniProt Q9BRX2)
inactive: [1] -0.037 | [2] 0.116 | [3] 0.103 | [4] 0.064 | [5] -0.049

PANX1 (UniProt Q96RD7)
inactive: [1] -0.018 | [2] 0.051 | [3] 0.068 | [4] -0.018 | [5] 0.024

PDE4DIP isoform 4 (UniProt Q5VU43)
inactive: [1] 0.023 | [2] 0.043 | [3] 0.046 | [4] -0.023 | [5] -0.011

PAK1 isoform 2 (UniProt Q13153)
inactive: [1] -0.152 | [2] 0.097 | [3] -0.113 | [4] -0.02 | [5] -0.092

PDCD2L (UniProt Q9BRP1)
inactive: [1] -0.031 | [2] 0.055 | [3] 0.109 | [4] 0.021 | [5] 0.091

PAK4 (UniProt O96013)
inactive: [1] -0.005 | [2] 0.045 | [3] 0.102 | [4] -0.02 | [5] -0.016

PALMD (UniProt Q9NP74)
inactive: [1] -0.016 | [2] 0.022 | [3] 0.046 | [4] 0.018 | [5] 0.079

PDLIM4 (UniProt P50479)
inactive: [1] -0.004 | [2] 0.078 | [3] 0.057 | [4] -0.043 | [5] -0.027

PEX14 (UniProt O75381)
inactive: [1] -0.006 | [2] -0.015 | [3] -0.022 | [4] -0.011 | [5] 0.016

PCYT1A (UniProt P49585)
inactive: [1] -0.035 | [2] 0.005 | [3] 0.056 | [4] -0.012 | [5] 0.019

PDE6D (UniProt O43924)
inactive: [1] -0.053 | [2] 0.238 | [3] -0.004 | [4] -0.13 | [5] 0.017

PELP1 (UniProt Q8IZL8)
inactive: [1] 0 | [2] 0.006 | [3] -0.028 | [4] -0.044 | [5] -0.013

PDCL3 (UniProt Q9H2J4)
inactive: [1] -0.003 | [2] 0.029 | [3] 0.016 | [4] -0.018 | [5] 0.008

PET100 (UniProt P0DJ07)
inactive: [1] 0.003 | [2] 0.041 | [3] 0.084 | [4] -0.061 | [5] -0.021

PCBP2 (UniProt F8VRH0)
inactive: [1] -0.033 | [2] -0.18 | [3] -0.013 | [4] 0.085 | [5] 0.026

PDAP1 (UniProt Q13442)
inactive: [1] -0.054 | [2] 0.015 | [3] 0.018 | [4] 0.01 | [5] 0.055

PAFAH1B3 (UniProt Q15102)
inactive: [1] -0.076 | [2] 0.139 | [3] 0.128 | [4] -0.132 | [5] -0.096

PARVB (UniProt Q9HBI1)
inactive: [1] -0.034 | [2] 0.02 | [3] 0.057 | [4] 0.014 | [5] -0.002

PAGE4 (UniProt O60829)
inactive: [1] -0.014 | [2] 0.086 | [3] 0.216 | [4] -0.015 | [5] -0.047

PDIA3 (UniProt H7BZJ3)
inactive: [1] 0.055 | [2] -0.064 | [3] 0.236 | [4] -0.078 | [5] 0.022

PAPOLA (UniProt P51003)
inactive: [1] -0.027 | [2] 0.051 | [3] 0.007 | [4] -0.058 | [5] -0.023

PANK1 (UniProt Q8TE04)
inactive: [1] 0.02 | [2] -0.017 | [3] 0.059 | [4] -0.047 | [5] 0.022

PEPD (UniProt P12955)
inactive: [1] 0.004 | [2] 0.051 | [3] 0.043 | [4] 0.029 | [5] -0.037

PDIA6 isoform 2 (UniProt Q15084)
inactive: [1] -0.017 | [2] -0.058 | [3] -0.042 | [4] 0.027 | [5] 0.07

PAK3 isoform 3 (UniProt O75914)
inactive: [1] 0.015 | [2] 0.028 | [3] -0.032 | [4] -0.023 | [5] -0.01

PALM3 (UniProt A6NDB9)
inactive: [1] 0.01 | [2] 0.029 | [3] -0.024 | [4] 0.025 | [5] 0.057

PBX2 (UniProt P40425)
inactive: [1] -0.052 | [2] 0.082 | [3] -0.011 | [4] 0.051 | [5] -0.016

PDS5A (UniProt Q29RF7)
inactive: [1] -0.34 | [2] 0.066 | [3] 0.096 | [4] 0.038 | [5] -0.105

PCNA (UniProt P12004)
inactive: [1] -0.006 | [2] 0.025 | [3] 0 | [4] -0.01 | [5] -0.007

PCCA (UniProt P05165)
inactive: [1] -0.054 | [2] 0.034 | [3] 0.112 | [4] -0.03 | [5] -0.061

PABPC4 isoform 3 (UniProt Q13310)
inactive: [1] 0.074 | [2] -0.113 | [3] -0.057 | [4] 0.139 | [5] 0.028

PDIA4 (UniProt P13667)
inactive: [1] 0.03 | [2] -0.024 | [3] -0.01 | [4] -0.013 | [5] -0.032

PCM1 isoform 5 (UniProt Q15154)
inactive: [1] 0.078 | [2] -0.118 | [3] 0.009 | [4] 0.043 | [5] 0.041

PDCL (UniProt Q13371)
inactive: [1] 0.088 | [2] 0.102 | [3] 0.038 | [4] 0.013 | [5] -0.086

PAXX (UniProt Q9BUH6)
inactive: [1] 0.013 | [2] -0.023 | [3] 0.019 | [4] -0.009 | [5] -0.014

Two entries drawn at random from those above, as already listed:
PDCL (UniProt Q13371)
inactive: [1] 0.088 | [2] 0.102 | [3] 0.038 | [4] 0.013 | [5] -0.086

PABPC4 isoform 3 (UniProt Q13310)
inactive: [1] 0.074 | [2] -0.113 | [3] -0.057 | [4] 0.139 | [5] 0.028

The list continues:

PBXIP1 (UniProt Q96AQ6)
inactive: [1] 0.018 | [2] 0.039 | [3] 0.048 | [4] -0.039 | [5] -0.012

PAGE1 (UniProt O75459)
inactive: [1] -0.017 | [2] -0.055 | [3] -0.104 | [4] 0.036 | [5] 0.073
